According to the supplement of paper PMC11732987, “Enantioselective OTUD7B fragment discovery through chemoproteomics screening and high-throughput optimisation” (Communications Chemistry, 2025):
Some of the results follow. The data scatter; read single values as rough.

Amino acid sequences for entries named in this document (tags omitted). A change or cut given only in a name is not applied to a line headed by its entry. Residues count along the entry.
UniProt O14686: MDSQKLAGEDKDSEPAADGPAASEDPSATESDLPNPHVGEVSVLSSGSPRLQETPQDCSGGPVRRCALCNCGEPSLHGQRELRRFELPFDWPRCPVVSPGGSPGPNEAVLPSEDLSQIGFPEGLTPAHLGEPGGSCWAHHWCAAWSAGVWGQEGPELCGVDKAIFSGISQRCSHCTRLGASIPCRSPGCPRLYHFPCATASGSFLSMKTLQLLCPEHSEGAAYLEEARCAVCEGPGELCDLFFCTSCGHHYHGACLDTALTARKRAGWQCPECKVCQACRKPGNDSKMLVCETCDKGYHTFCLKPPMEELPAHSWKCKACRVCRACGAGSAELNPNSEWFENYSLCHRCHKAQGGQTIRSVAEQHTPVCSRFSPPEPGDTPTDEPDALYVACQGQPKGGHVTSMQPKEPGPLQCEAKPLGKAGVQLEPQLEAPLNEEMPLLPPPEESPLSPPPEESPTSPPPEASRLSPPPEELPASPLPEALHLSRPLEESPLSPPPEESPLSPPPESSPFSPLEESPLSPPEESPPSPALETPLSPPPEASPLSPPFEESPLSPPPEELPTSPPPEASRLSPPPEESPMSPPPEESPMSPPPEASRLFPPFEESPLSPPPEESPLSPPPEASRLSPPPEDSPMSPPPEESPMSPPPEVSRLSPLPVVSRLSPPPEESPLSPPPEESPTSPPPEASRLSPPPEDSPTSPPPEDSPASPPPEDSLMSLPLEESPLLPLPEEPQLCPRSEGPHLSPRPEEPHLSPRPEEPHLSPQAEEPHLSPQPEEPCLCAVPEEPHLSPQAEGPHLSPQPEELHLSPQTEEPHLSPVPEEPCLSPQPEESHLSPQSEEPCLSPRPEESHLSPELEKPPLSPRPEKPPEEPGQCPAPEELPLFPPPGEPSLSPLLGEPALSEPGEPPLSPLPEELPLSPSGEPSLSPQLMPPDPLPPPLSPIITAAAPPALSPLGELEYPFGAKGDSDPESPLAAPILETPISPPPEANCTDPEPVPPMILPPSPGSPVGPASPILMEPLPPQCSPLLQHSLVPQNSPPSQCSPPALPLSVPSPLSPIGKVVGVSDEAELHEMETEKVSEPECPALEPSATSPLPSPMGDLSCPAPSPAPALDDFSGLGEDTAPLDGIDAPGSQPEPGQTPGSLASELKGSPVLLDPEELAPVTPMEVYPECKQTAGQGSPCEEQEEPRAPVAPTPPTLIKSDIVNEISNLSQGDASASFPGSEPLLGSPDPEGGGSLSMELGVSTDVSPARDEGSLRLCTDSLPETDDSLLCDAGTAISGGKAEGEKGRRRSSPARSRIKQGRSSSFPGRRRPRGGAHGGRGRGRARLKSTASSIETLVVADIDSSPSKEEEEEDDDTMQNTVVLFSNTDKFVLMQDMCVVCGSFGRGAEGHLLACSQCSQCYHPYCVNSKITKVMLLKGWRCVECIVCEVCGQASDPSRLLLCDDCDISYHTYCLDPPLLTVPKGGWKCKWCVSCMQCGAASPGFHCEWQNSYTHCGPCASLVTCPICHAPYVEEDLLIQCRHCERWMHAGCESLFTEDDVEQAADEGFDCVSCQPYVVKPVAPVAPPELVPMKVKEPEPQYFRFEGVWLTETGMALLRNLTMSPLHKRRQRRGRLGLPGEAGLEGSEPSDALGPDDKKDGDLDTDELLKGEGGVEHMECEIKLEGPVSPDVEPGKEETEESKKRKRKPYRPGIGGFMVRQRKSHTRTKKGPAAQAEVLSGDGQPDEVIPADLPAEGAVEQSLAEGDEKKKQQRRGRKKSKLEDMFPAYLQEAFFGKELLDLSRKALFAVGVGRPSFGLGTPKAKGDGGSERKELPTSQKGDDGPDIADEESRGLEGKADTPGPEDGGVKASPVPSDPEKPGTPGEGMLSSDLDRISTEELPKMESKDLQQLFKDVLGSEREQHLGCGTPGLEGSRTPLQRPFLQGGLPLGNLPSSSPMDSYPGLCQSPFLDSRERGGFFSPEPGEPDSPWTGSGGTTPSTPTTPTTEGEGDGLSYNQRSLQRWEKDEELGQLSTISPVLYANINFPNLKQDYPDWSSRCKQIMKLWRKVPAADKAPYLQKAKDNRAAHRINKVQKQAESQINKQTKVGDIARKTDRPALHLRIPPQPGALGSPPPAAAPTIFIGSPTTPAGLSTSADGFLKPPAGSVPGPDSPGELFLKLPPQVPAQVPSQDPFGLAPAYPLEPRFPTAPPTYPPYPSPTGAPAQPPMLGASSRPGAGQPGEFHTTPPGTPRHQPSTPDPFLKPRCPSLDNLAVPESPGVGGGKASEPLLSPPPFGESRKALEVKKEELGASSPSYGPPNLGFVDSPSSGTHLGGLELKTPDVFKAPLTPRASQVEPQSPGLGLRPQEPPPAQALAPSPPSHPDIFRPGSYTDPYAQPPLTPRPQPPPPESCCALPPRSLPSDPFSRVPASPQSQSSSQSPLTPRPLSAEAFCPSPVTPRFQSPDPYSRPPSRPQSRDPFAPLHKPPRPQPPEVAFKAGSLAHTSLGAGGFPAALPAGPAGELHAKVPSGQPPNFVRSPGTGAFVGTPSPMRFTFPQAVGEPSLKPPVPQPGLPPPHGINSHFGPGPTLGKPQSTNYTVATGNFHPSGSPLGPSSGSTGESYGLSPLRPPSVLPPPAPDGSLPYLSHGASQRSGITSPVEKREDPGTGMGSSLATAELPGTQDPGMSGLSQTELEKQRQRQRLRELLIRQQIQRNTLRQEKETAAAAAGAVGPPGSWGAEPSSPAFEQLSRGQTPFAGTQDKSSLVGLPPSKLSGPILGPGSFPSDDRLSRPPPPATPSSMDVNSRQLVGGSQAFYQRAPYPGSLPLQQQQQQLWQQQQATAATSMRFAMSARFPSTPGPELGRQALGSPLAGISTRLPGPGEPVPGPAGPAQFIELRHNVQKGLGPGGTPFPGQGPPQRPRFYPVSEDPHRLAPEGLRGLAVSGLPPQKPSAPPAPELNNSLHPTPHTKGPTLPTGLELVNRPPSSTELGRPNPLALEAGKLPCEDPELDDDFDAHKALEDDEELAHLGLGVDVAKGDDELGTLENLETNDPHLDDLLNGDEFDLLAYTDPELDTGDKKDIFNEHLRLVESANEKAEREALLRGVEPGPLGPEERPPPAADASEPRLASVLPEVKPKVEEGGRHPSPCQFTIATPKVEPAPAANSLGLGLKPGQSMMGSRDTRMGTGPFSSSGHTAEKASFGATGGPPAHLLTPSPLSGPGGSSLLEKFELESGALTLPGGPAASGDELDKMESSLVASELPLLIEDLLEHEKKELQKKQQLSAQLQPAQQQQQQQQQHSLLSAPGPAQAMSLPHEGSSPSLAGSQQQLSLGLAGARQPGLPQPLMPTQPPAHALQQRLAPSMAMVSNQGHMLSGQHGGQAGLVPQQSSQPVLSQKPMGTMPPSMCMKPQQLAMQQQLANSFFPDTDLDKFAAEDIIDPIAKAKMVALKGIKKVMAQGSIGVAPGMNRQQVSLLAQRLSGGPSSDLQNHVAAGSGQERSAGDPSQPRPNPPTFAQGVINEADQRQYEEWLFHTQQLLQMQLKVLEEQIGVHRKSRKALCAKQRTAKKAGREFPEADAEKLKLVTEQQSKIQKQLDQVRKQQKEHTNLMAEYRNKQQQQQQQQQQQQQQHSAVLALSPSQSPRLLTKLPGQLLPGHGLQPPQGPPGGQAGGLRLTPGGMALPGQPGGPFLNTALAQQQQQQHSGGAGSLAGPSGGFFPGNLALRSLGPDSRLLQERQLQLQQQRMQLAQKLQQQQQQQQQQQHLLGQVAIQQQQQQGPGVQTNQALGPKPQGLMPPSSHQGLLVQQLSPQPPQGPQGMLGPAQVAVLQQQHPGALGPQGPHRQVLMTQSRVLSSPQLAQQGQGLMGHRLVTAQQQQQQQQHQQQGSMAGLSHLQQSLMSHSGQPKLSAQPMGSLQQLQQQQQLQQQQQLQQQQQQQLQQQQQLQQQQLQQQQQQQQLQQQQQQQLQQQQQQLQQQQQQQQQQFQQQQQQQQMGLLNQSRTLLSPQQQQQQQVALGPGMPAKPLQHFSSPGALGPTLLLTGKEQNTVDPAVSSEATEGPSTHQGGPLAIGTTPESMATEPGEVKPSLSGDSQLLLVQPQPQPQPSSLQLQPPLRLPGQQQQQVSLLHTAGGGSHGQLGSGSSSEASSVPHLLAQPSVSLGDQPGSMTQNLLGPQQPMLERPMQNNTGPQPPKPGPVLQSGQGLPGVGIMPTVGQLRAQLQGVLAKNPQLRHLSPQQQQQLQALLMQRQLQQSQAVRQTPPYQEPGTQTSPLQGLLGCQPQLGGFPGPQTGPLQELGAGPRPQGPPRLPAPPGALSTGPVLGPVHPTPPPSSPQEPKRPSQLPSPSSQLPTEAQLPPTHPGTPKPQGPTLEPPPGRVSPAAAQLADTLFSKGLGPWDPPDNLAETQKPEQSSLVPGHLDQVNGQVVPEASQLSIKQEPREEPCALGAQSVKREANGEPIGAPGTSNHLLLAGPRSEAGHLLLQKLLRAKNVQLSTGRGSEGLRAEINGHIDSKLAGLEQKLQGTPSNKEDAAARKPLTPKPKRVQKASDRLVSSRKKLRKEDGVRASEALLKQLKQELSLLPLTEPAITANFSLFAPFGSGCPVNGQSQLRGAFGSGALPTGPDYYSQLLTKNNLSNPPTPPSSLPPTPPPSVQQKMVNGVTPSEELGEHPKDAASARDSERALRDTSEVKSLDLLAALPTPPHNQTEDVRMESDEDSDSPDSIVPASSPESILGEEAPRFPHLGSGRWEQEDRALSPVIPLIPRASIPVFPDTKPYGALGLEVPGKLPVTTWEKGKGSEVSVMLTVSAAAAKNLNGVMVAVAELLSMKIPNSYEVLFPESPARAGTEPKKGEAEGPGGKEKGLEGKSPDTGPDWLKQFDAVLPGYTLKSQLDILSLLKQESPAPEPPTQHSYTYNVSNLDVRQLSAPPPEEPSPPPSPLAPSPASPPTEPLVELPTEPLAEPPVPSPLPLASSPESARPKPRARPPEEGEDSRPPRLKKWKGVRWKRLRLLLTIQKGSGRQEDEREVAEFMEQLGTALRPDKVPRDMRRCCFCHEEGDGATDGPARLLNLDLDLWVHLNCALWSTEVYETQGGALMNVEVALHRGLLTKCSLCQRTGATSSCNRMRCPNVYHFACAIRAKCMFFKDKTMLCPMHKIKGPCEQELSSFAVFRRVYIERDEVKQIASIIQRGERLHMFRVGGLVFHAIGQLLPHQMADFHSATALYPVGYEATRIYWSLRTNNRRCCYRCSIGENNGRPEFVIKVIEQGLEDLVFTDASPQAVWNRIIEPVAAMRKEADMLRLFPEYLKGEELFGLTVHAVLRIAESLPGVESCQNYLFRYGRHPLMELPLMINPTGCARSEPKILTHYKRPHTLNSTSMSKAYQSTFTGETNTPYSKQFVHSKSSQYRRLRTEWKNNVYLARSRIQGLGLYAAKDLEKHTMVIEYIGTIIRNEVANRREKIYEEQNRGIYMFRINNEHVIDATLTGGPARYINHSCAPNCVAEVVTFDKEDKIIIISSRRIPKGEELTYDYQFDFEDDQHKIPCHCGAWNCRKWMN
UniProt Q9UN81: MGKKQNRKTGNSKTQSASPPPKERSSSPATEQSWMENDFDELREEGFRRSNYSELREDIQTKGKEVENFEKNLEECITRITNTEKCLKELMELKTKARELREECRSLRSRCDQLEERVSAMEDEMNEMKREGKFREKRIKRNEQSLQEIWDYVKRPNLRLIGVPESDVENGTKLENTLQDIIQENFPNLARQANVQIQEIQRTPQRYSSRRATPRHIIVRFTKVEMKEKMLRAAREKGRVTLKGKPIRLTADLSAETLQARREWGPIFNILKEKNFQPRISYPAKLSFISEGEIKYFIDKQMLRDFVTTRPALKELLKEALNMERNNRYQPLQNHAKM
UniProt O75427: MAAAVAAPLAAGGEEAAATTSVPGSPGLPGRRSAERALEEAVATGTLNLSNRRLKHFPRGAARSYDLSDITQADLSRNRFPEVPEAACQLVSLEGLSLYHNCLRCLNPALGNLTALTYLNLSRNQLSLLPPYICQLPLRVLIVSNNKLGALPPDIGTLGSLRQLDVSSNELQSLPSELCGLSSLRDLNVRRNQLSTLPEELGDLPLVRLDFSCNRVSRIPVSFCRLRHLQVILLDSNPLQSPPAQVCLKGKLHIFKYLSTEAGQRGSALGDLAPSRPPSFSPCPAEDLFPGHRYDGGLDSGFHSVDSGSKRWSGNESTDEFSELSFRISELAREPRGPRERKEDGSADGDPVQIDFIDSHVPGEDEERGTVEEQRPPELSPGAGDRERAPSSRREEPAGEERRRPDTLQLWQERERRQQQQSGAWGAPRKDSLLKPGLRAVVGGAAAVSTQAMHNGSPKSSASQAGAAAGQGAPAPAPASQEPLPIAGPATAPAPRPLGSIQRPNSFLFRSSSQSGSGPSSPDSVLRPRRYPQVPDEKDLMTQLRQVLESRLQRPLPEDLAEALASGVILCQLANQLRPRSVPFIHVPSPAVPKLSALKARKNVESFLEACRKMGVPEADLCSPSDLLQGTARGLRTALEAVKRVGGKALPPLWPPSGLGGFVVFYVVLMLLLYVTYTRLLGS
UniProt Q07866, 415-437: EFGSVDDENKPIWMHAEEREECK

What was measured:
[1] = compound: ClCC(=O)N[C@@H]1CCCc2ccccc12; test: log2 mean competition ratio of IA-DTB cysteine labelling (DMSO/compound) (log2 ratio); higher = stronger cysteine engagement by compound; conditions: treatment time: 4 h, cell line lysate: HEK293T
Protocol: (§1)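 IA-DTB competitive cysteine chemoproteomics in HEK293T RIPA lysate. Lysates were treated with compound 29 or 30 at 50 or 200 µM for 4 h, then IA-DTB (500 µM, 1 h), trypsin-digested, NeutrAvidin-enriched and analysed by diaPASEF. Competition ratio = intensity DMSO / intensity compound (n=4 treated, n=64 DMSO); binding: mean log2 CR ≥ 1 and p ≤ 0.05 plus QC filters. Target is the cysteine site.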

[2] = compound: ClCC(=O)N[C@H]1CCCc2ccccc12; test: as above; conditions: treatment time: 4 h, cell line lysate: HEK293T
Protocol: as §1

Row | Target | log2 mean competition ratio ([1]; 50 µM) | log2 mean competition ratio ([1]; 200 µM) | log2 mean competition ratio ([2]; 200 µM) | log2 mean competition ratio ([2]; 50 µM)
1 | KLHDC10 C73 (UniProt Q6PID8) | 0.265 | 0.231 | -0.0251 | 
2 | KIF5B C294 (UniProt P33176) | 0.24 | 0.159 | 0.277 | 0.107
3 | LRBA C2675 | 0.102 | -0.345 |  | 
4 | LRBA C2740 | -0.376 | -0.0543 | -0.0561 | -0.156
5 | LLGL1 C1059 (UniProt Q15334) | -0.285 | -0.0431 |  | 
6 | LONP1 C682 (UniProt P36776) | -0.0266 | -0.0335 |  | 
7 | LEPROT C66 (UniProt O15243) | 0.13 | 0.296 |  | 
8 | KMT2D C414 (UniProt O14686) | -0.0159 | -0.186 |  | 
9 | L1RE1 C76 (UniProt Q9UN81) | -0.184 | -0.0402 |  | 
10 | LRP1 C40 (UniProt Q07954) | 0.0944 | 0.374 |  | 
11 | LRATD2 C208 | -0.00459 | -0.221 |  | 
12 | LRBA C982 | -0.16 | -0.103 |  | 
13 | LIN37 C134 (UniProt Q96GY3) | -0.418 | 0.234 | 0.0145 | -0.0916
14 | LGR4 C339 | -0.0551 | -0.0385 |  | 
15 | LIN28B C201 (UniProt Q6ZN17) | 0.157 | 0.235 | 0.171 | -0.237
16 | KMT2E C1013 (UniProt Q8IZD2) | -0.00711 | -0.0503 | 0.1 | -0.2
17 | LRBA C1228 | -0.0445 | -0.0891 |  | 
18 | KNL1 C1847 (UniProt Q8NG31) | 0.0987 | 0.144 |  | 
19 | KLC2 C474 (UniProt Q9H0B6) | 0.0305 | 0.0956 | 0.0278 | -0.136
20 | L3MBTL2 C554 (UniProt Q969R5) | -0.357 | -0.172 | -0.183 | 
21 | LEF1 C18 (UniProt Q9UJU2) | -0.446 | -0.25 |  | 
22 | LIMCH1 C3 (UniProt Q9UPQ0) | 0.195 | -0.624 |  | 
23 | LENG8 C643 (UniProt Q96PV6) | -0.00968 | -0.103 |  | 
24 | LMO7 C98 (UniProt Q8WWI1) | 0.39 | -0.0516 | -0.173 | 0.0571
25 | LLPH C64 (UniProt Q9BRT6) | 0.241 | 0.183 |  | 
26 | LONP1 C909 (UniProt P36776) | -0.0614 | -0.324 |  | 

Row | Target | log2 mean competition ratio ([1]; 50 µM) | log2 mean competition ratio ([1]; 200 µM) | log2 mean competition ratio ([2]; 200 µM) | log2 mean competition ratio ([2]; 50 µM)
27 | LARP1 C238 (UniProt Q6PKG0) | -0.265 | 0.298 | 0.484 | -0.0971
28 | LRIG1 C1066 | 0.0463 | -0.341 | -0.569 | 
29 | LIG1 C565 (UniProt P18858) | -0.206 | 0.0213 |  | 
30 | KIFC1 C485 (UniProt Q9BW19) | -0.243 | -0.096 | -0.0848 | -0.00811
31 | KMT2B C2540 (UniProt Q9UMN6) | -0.381 | -0.174 |  | 
32 | LIMA1 C164 (UniProt Q9UHB6) | 0.0295 | -0.0377 |  | 
33 | LRBA C128 | -0.0341 | -0.122 | -0.26 | -0.41
34 | LRP1 C2837 (UniProt Q07954) | -0.121 | 0.376 | 0.371 | 0.129
35 | LIMS1 C222 (UniProt P48059) | 0.333 | -0.462 |  | 
36 | LIMK1 C390 (UniProt P53667) | 0.122 | -0.256 |  | 
37 | KMT2D C369 (UniProt O14686) | -0.114 | 0.0988 |  | 
38 | LRFN1 C651 (UniProt Q9P244) | -0.313 | -0.221 | -0.24 | 0.249
39 | KMT2D C58 (UniProt O14686) | 0.067 | 0.109 | 0.0862 | -0.0987
40 | KMT2D C4424 (UniProt O14686) | -0.0288 | -0.339 | -0.264 | 0.316
41 | LPCAT3 C316 (UniProt Q6P1A2) | -0.328 | -0.246 | -0.229 | -0.132
42 | KNTC1 C911 (UniProt P50748) | -0.252 | 0.85 | 0.147 | -0.358
43 | LARP4B C654 (UniProt Q92615) | 0.039 | 0.105 | 0.155 | 0.172
44 | LCP1 C336 (UniProt P13796) | -0.0839 | 0.1 | -0.0481 | -0.0382
45 | KMT2C C473 (UniProt Q8NEZ4) | 0.0945 | -0.0357 | -0.0752 | 0.293
46 | LRCH4 C213 (UniProt O75427) | 0.0468 | 0.317 | 0.436 | 0.108
47 | KMT2B C10 (UniProt Q9UMN6) | 0.0172 | -0.0377 | 0.02 | -0.0613
48 | LRPPRC C113 | -0.103 | 0.321 | 0.272 | -0.0078
49 | KPNA2 C133 (UniProt P52292) | 0.0601 | 0.612 | 0.224 | 0.138
50 | KMT2C C4643 (UniProt Q8NEZ4) | -0.104 | -0.182 | -0.128 | 0.327
51 | LGALSL C101 (UniProt Q3ZCW2) | -0.324 | 0.196 | 0.183 | -0.181
52 | KLC1 C436 (UniProt Q07866) | 0.0392 | -0.139 | -0.0616 | 0.205

Fetched one by one from above, 2 records:
Row | Target | log2 mean competition ratio ([1]; 50 µM) | log2 mean competition ratio ([1]; 200 µM) | log2 mean competition ratio ([2]; 200 µM) | log2 mean competition ratio ([2]; 50 µM)
39 | KMT2D C58 (UniProt O14686) | 0.067 | 0.109 | 0.0862 | -0.0987
43 | LARP4B C654 (UniProt Q92615) | 0.039 | 0.105 | 0.155 | 0.172
